Laboratory results taken from publication PMC9687537.
Results are given in words; binding and its absence hold for the method and conditions named. Binding seen in cells or lysates may run through a third protein. These calls come from enrichment with a bait or labelling near it, and not all partners need be listed. No binding means not detected with the bait. Tags and fused reporters may be left off the sequences shown.

T1: GFP–WDR34-WT (human), Q96EX3
T1 chain: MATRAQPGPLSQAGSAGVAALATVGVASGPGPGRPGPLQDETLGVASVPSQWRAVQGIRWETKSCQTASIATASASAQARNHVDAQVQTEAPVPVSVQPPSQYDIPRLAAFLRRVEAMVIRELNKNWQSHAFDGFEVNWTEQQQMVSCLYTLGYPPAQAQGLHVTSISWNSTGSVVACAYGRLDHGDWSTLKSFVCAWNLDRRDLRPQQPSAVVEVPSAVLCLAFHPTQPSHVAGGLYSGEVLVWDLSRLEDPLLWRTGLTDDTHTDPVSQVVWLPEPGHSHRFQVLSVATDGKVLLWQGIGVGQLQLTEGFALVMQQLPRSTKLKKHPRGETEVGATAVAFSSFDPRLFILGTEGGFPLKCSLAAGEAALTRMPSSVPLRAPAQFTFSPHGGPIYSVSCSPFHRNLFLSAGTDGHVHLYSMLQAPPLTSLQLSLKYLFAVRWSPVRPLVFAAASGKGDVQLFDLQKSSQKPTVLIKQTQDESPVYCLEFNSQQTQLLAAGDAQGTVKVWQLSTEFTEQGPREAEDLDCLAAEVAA

B1: DYNLT3, P51808 1-116 (protein)
chain: MEEYHRHCDEVGFNAEEAHNIVKECVDGVLGGEDYNHNNINQWTASIVEQSLTHLVKLGKAYKYIVTCAVVQKSAYGFHTASSCFWDTTSDGTCTVRWENRTMNCIVNVFAIAIVL
B2: DYNLRB2, Q8TF09 1-96 (protein)
chain: MAEVEETLKRIQSHKGVIGTMVVNAEGIPIRTTLDNSTTVQYAGLLHHLTMKAKSTVRDIDPQNDLTFLRIRSKKHEIMVAPDKEYLLIVIQNPCE

Target: T1, GFP–WDR34-WT (human), Q96EX3
Test: affinity purification with mass spectrometry; GFP-Trap beads on clarified lysates of RPE1 WDR34 KO cells stably expressing GFP proteins, serum-starved 24 h; cells cross-linked with 1 mM DSP before lysis; 16-plex TMT labelling; abundances normalised to WDR34 (GFP only: to GFP) and compared with GFP–WDR34-WT; three independent experiments (PXD032758)
Details: remark: other sources report otherwise

Binder | binding
B1 | no binding
B2 | no binding
